Values from PubChem BioAssay AID1259260 (Sanger Institute, 2017).
Screen: 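Kinases whose knock-down kills colorectal cancer cells or boosts drug effects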 (primary screen). Cell system: human NCI-H716 colorectal cancer cells. Reagents: siRNA pool against human genes. Conditions: anchor drugs BYL719 (alpelisib) 1 µM, cetuximab 5 µg/ml or trametinib 10 nM, each at a dose chosen to harm viability only mildly; DMSO vehicle for the knock-down-alone arm. Detection: 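Mean viability over replicates against non-targeting siRNA, robust z-score without drug, and per-drug synergy comparing combined with single treatments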. Scale: viability robust z-score, siRNA alone: higher = more surviving cells; below -3 called essential; viability vs control, no drug: higher = more surviving cells. Rule for the call: 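a knock-down counts as essential if its no-drug robust z-score is lower than -3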. Calls: active = essential (knock-down alone lowers viability); inactive = no essential effect.
Here is one part, drawn at random, of 794 deposited reagents. In the full data, 13 (1.6%) were called active. 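Calls reflect only knock-down without drug; synergy above 0.15 was grouped apart and does not change the call.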 No viability above 1 is reported: the scale is capped. Not all columns of the deposit are shown. Reagent sequences are not shown. Not given: the amount of reagent, the time to read-out.

no.	gene	viability robust z-score, siRNA alone	viability vs control, no drug (fraction of control)	outcome
1	RIOK1 (RIO kinase 1)	-1.6	0.771	inactive
2	PIP4K2B (phosphatidylinositol-5-phosphate 4-kinase type 2 beta)	0.602	1	inactive
3	GTF2H1 (general transcription factor IIH subunit 1)	0.602	1	inactive
4	CDK5 (cyclin dependent kinase 5)	0.602	1	inactive
5	PRKAA1 (protein kinase AMP-activated catalytic subunit alpha 1)	0.602	1	inactive
6	SRPK1 (SRSF protein kinase 1)	-0.582	0.877	inactive
7	PRKACA (protein kinase cAMP-activated catalytic subunit alpha)	0.602	1	inactive
8	NTRK1 (neurotrophic receptor tyrosine kinase 1)	-0.178	0.919	inactive
9	PGK2 (phosphoglycerate kinase 2)	0.602	1	inactive
10	STK35 (serine/threonine kinase 35)	0.602	1	inactive
11	NME5 (NME/NM23 family member 5)	0.602	1	inactive
12	PKLR (pyruvate kinase L/R)	0.602	1	inactive
13	MAP3K7 (mitogen-activated protein kinase kinase kinase 7)	-0.0179	0.936	inactive
14	DGKH (diacylglycerol kinase eta)	-0.749	0.86	inactive
15	ALDH18A1 (aldehyde dehydrogenase 18 family member A1)	0.602	1	inactive
16	TAB1 (TGF-beta activated kinase 1 (MAP3K7) binding protein 1)	-0.44	0.892	inactive
17	CDKN2B (cyclin dependent kinase inhibitor 2B)	-1.7	0.76	inactive
18	MAP3K1 (mitogen-activated protein kinase kinase kinase 1)	0.283	0.967	inactive
19	PDK2 (pyruvate dehydrogenase kinase 2)	0.439	0.983	inactive
20	RSKR (ribosomal protein S6 kinase related)	0.602	1	inactive
21	AKT1 (AKT serine/threonine kinase 1)	0.602	1	inactive
22	ACVR1C (activin A receptor type 1C)	-0.992	0.834	inactive
23	DAPK3 (death associated protein kinase 3)	0.602	1	inactive
24	CAMK2G (calcium/calmodulin dependent protein kinase II gamma)	0.602	1	inactive
25	TAOK3 (TAO kinase 3)	0.541	0.994	inactive
26	MAPK8 (mitogen-activated protein kinase 8)	0.602	1	inactive
27	CDC42BPA (CDC42 binding protein kinase alpha)	0.602	1	inactive
28	MAPK3 (mitogen-activated protein kinase 3)	-1.58	0.773	inactive
29	AK2 (adenylate kinase 2)	0.602	1	inactive
30	PANK2 (pantothenate kinase 2)	-0.742	0.86	inactive
31	MAP3K15 (mitogen-activated protein kinase kinase kinase 15)	0.602	1	inactive
32	AK7 (adenylate kinase 7)	-0.0734	0.93	inactive
33	LATS1 (large tumor suppressor kinase 1)	-2.65	0.662	inactive
34	DUSP21 (dual specificity phosphatase 21)	0.602	1	inactive

Sorted by “viability robust z-score, siRNA alone” (low to high): 2 of the entries above.
gene	viability robust z-score, siRNA alone	viability vs control, no drug (fraction of control)	outcome
SRPK1 (SRSF protein kinase 1)	-0.582	0.877	inactive
PRKAA1 (protein kinase AMP-activated catalytic subunit alpha 1)	0.602	1	inactive
